Experiment [1] can be described thus: qHTS Assay for Inhibitors of PDE-IV (AID 607). As to conditions: HEK293 ACTOne CNG channel cells, membrane potential fluorescence; measured here: parental cell counter-screen. The method in brief:
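Cell-based read-out of cAMP via a modified cyclic nucleotide-gated channel and membrane potential dye (535/590 nm) in HEK293 cells expressing PDE4 endogenously. Compounds tested up to 22.9 uM final; 100 uM RO 20-1724 reference.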

A short description of experiment [2]: qHTS Assay for Lipid Storage Modulators (AID 1519). Particulars: Drosophila S3 cells, BODIPY lipid droplet/cell ratio, laser cytometry, cells loaded with oleic acid. A digest of the protocol:
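Cells seeded at 5,000 per well were treated with compounds over a concentration series and loaded with oleic acid (400 uM, as added). Lipid droplet fluorescence (488 nm excitation, 500-530 nm channel) was read by laser-scanning cytometry and normalized to 20 uM Triacsin C.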

The nature of experiment [3]: qHTS assay for small molecule antagonists of peroxisome proliferator-activated receptor delta signaling (AID 588535).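 Further: cells co-treated with a PPAR-delta agonist as stimulator during compound exposure.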 As to conditions: HEK293T PPARd-UAS-bla, beta-lactamase FRET ratio, 18 h; 460 nm channel. A digest of the protocol:
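Titrations were run on PPAR-delta-UAS-bla HEK293T cells in charcoal/dextran-stripped serum, incubated 18 h at 37 C. CCF4 fluorescence (460/530 nm) after 2 h RT; Hill equation yields IC50 and maximal response.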

Experiment [4] can be described thus: qHTS assay for small molecule antagonists of peroxisome proliferator-activated receptor gamma signaling (AID 588537). As to conditions: HEK293 PPARg-UAS-bla, beta-lactamase ratio, antagonist mode; measured here: W460 blue channel. A digest of the protocol:
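Antagonist-mode β-lactamase reporter screen run as a titration series. HEK293 PPARγ-UAS-bla cells are stimulated with rosiglitazone (50 nM final) for 16 h, then CCF4 is read at 460/530 nm. Data are scaled between DMSO and rosiglitazone and fitted to the Hill equation.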

The nature of experiment [5]: qHTS assay for small molecule agonists of retinoid X receptor alpha signaling (AID 588544). As to conditions: HEK293T RXRa-UAS-bla, beta-lactamase reporter, 18 h; 530 nm emission.
Experiment [6] can be described thus: qHTS assay for small molecule antagonists of vitamin D receptor signaling (AID 588541). As to conditions: HEK293T VDR-UAS-bla, beta-lactamase ratio, antagonist mode; measured here: W460 blue channel (cell viability).
Experiment [7] in a line: S16 Schwann cell PMP22 intronic element beta-lactamase assay (AID 624044). Particulars: S16 rat Schwann cells, PMP22 element beta-lactamase FRET, 24 h; measured here: 460 nm blue channel. A digest of the protocol:
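Beta-lactamase reporter under a PMP22 intronic regulatory element in stable S16 rat Schwann cells; 24 h compound exposure. 460 nm blue signal normalized between DMSO (0%) and potassium clavulanate, with 535 nm FRET tracking viability; curves classed by r2 and response.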

Setting [8] is: measured here: cell count channel max response.
The mark [9] stands for this setting: measured here: cell number channel AC50.
[10] abbreviates: measured here: lipid (BODIPY) channel AC50.
Setting [11] is: measured here: lipid channel max response.

Consider 14 compounds from PubChem BioAssay (NCATS).

Where “and” joins values, the source holds several entries; their conditions need not be identical. Identical values can stand only once. This is one part of the list. These are further read-outs of the screen, such as a control signal, another cell line or another target. No call is given for them. Compounds called inactive in the main read-out are mostly missing here. For part of these data: The note in brackets gives the kind of curve behind each potency; many fits are weak.

With `c1ccc(CN(CC2=NCCN2)c2ccccc2)cc1`, the half-maximal activity concentration (AC50) in experiment [1] is 0.0316 µM [rising, full curve, poor fit]; in experiment [2] (setting [9]), 35.5 µM [rising, partial curve, poor fit]; in experiment [2] (setting [10]), 35.5 µM [rising, partial curve, poor fit]. In addition, the figures for the max response in experiment [2] (setting [8]) and in experiment [2] (setting [11]) were 55.8% and 72.9%, respectively.

With `CN(Cc1ccco1)c1nc(-c2ccoc2)nc2ccccc12`, the AC50 was 10 µM [rising, single point] in experiment [1]; 4.47 µM [rising, partial curve] in experiment [2] (setting [9]); 3.98 µM [rising, partial curve] in experiment [2] (setting [10]). Moreover, the values for the max response in experiment [2] (setting [8]) and in experiment [2] (setting [11]) were 31.8% and 36.9%, respectively.

As to `COc1ccccc1CC(=N)N1C[C@@H]2C(=O)CCC(c3ccccc3)(c3ccccc3)[C@@H]2C1`, the AC50 is 15.8 µM [rising, single point] in experiment [1]; 3.98 µM [rising, full curve] in experiment [2] (setting [9]); 3.55 µM [rising, full curve] in experiment [2] (setting [10]). Moreover, the results for the max response in experiment [2] (setting [8]) and in experiment [2] (setting [11]) were 83.6% and 108%, respectively.

Turning to `CC1=NN(c2ccccc2)C(=O)C1`, the max response in experiment [2] (setting [8]) is 73.9%; in experiment [2] (setting [11]), 95.1%; in experiment [3], 46.7%; in experiment [5], 31.5% and 0.553%. Moreover, the AC50 was 28.2 µM [rising, partial curve] in experiment [2] (setting [9]); 31.6 µM [rising, partial curve, poor fit] in experiment [2] (setting [10]); 5.01 µM [falling, full curve, poor fit] in experiment [4].

Consider `CCCCCCCNS(=O)(=O)c1cccc2c(Cl)cccc12`, for which the AC50 in experiment [1] was 5.01 µM [rising, partial curve, poor fit]; in experiment [2] (setting [9]) it was 12.6 µM [rising, full curve, poor fit]; in experiment [2] (setting [10]) it was 14.1 µM [rising, partial curve, poor fit]. Moreover, the values for the max response in experiment [2] (setting [8]) and in experiment [2] (setting [11]) were 36.3% and 18.7%, respectively.

Regarding `CN(Cc1ccco1)c1nc(-c2ccc3c(c2)OCO3)nc2ccccc12`, the AC50 in experiment [1] is 12.6 µM [rising, partial curve]; in experiment [2] (setting [9]), 0.0501 µM [rising, full curve, poor fit]; in experiment [2] (setting [10]) it was 0.0562 µM [rising, full curve]. The figures for the max response in experiment [2] (setting [8]) and in experiment [2] (setting [11]) were 27.9% and 35.7%, respectively.

For `Clc1ccccc1CNCC1CCC(CNCc2ccccc2Cl)CC1` (stereo not drawn), the AC50 in experiment [1] was 12.6 µM [rising, partial curve]; in experiment [2] (setting [9]) it was 35.5 µM [rising, partial curve, poor fit]; in experiment [2] (setting [10]) it was 35.5 µM [rising, partial curve, poor fit]. Also, the max response was 67.5% in experiment [2] (setting [8]) and 84.1% in experiment [2] (setting [11]).

`CC1=C(/C=C/C(C)=C/C=C/C(C)=C/CO)C(C)(C)CCC1`: the max response was 36.5% and 75.1% in experiment [2] (setting [8]); 55.7% and 79.2% in experiment [2] (setting [11]); 262% and 87.1% in experiment [3]; 3.32% and 28.7% in experiment [5]. Also, the AC50 in experiment [2] (setting [9]) is 28.2 µM [rising, single point] and 31.6 µM [rising, partial curve, poor fit]; in experiment [2] (setting [10]), 35.5 µM [rising, single point] and 31.6 µM [rising, partial curve, poor fit]; in experiment [4] it was 44.7 µM [rising, single point] and 25.1 nM [falling, full curve, poor fit]; in experiment [6], 39.8 µM [rising, partial curve, poor fit]; in experiment [7], 0.999 µM [falling, full curve, poor fit].

Take `Cc1ccccc1-c1nc(N(C)Cc2ccco2)c2ccccc2n1`: the AC50 in experiment [1] was 15.8 µM [rising, single point]; in experiment [2] (setting [9]), 1.26 µM [rising, full curve]; in experiment [2] (setting [10]), 1.12 µM [rising, full curve]. The max response in experiment [2] (setting [8]) stood at 37%; in experiment [2] (setting [11]), 41.4%.

On to `COc1ccccc1CNc1cc(-c2ccccc2CN(C)C)ncn1`, for which the AC50 in experiment [1] was 5.01 µM [rising, partial curve]; in experiment [2] (setting [9]) it was 17.8 µM [rising, partial curve, poor fit]; in experiment [2] (setting [10]) it was 35.5 µM [rising, partial curve, poor fit]. In addition, the max response in experiment [2] (setting [8]) came out at 41.5%; in experiment [2] (setting [11]), 47.6%.

On to `Nc1c2c(nc3ccccc13)CCCC2`, for which the AC50 in experiment [1] was 20 µM [falling, partial curve, poor fit]; in experiment [2] (setting [9]), 0.00891 µM [rising, full curve, poor fit]; in experiment [2] (setting [10]) it was 3.16 µM [rising, full curve, poor fit] and 3.98 µM [rising, partial curve, poor fit]; in experiment [4] it was 10 µM [falling, partial curve, poor fit]. Also, the max response was 26.8% and 37.2% in experiment [2] (setting [8]); 36.4% and 54.2% in experiment [2] (setting [11]); 29.6% in experiment [5].

With `COc1ccccc1CNc1nc(-c2ccc(C(=O)N(C)C)cc2)nc2ccccc12`, the AC50 was 10 µM [rising, single point] in experiment [1]; 0.00562 µM [rising, full curve, poor fit] in experiment [2] (setting [9]); 0.00891 µM [rising, full curve, poor fit] in experiment [2] (setting [10]). Besides, the max response in experiment [2] (setting [8]) turned out to be 30.2%; in experiment [2] (setting [11]) it was 39.7%.

Regarding `O=C(Nc1ccccc1)N1CC2(CCN(C(=O)c3cnccn3)CC2)C1`, the AC50 in experiment [1] is 7.94 µM [rising, partial curve, poor fit]; in experiment [2] (setting [9]), 3.98 µM [rising, single point]; in experiment [2] (setting [10]), 4.47 µM [rising, partial curve, poor fit]. Also, the max response in experiment [2] (setting [8]) worked out at 4.5%; in experiment [2] (setting [11]), 11.2%.

`CCCCC1C(=O)N(c2ccccc2)N(c2ccccc2)C1=O`: the max response in experiment [2] (setting [8]) is 36.9% and 51.5%; in experiment [2] (setting [11]), 53.1% and 55.1%. The concentration at half-maximal activity (AC50) in experiment [2] (setting [9]) was 31.6 µM [rising, single point]; in experiment [2] (setting [10]) it was 31.6 µM [rising, single point]; in experiment [4], 70.8 µM [rising, single point].
